# Results as given in PMC11091320.
# No constants are given. Whether binding was seen depends on the method and setting.
# B1: DinB homolog polymerase (Dbh), C31S form (enzyme, UniProt Q4JB80 1-354)
# chain: MIVIFVDFDYFFAQVEEVLNPQYKGKPLVVSVYSGRTKTSGAVATANYEARKLGVKAGMPIIKAMQIAPSAIYVPMRKPIYEAFSNRIMNLLNKHADKIEVASIDEAYLDVTNKVEGNFENGIELARKIKQEILEKEKITVTVGVAPNKILAKIIADKSKPNGLGVIRPTEVQDFLNELDIDEIPGIGSVLARRLNELGIQKLRDILSKNYNELEKITGKAKALYLLKLAQNKYSEPVENKSKIPHGRYLTLPYNTRDVKVILPYLKKAINEAYNKVNGIPMRITVIAIMEDLDILSKGKKFKHGISIDNAYKVAEDLLRELLVRDKRRNVRRIGVKLDNIIINKTNLSDFFDI
# Molecular target: DinB homolog polymerase (Dbh), C31S form (Sulfolobus acidocaldarius) (UniProt Q4JB80)
# Test: dynamic light scattering; NMR protein samples diluted to 1.1-1.3 mg/mL in 50 mM sodium phosphate, 100 mM NaCl, pH 7.5; Malvern Zetasizer Nano; measured at 35°C, then at 5°C; both purified
binder,measurement,value
B1,binding,no binding (tested: 1.1—1.3 mg/mL)
